{"source": "patent EP0932613B1", "about": "“BLOCKING EXPRESSION OF VIRULENCE FACTORS IN S. AUREUS” (NEW YORK UNIVERSITY, priority 1996, dated 2005)", "system": "RNAIII transcription", "experiment": "RNAIII transcription activation/inhibition assay (Ji et al. 1995), strain RN6390B", "assay_type": "cell-based, S. aureus RN6390B", "details": "synthetic material", "experimental": "The purified activator peptide was then analyzed for its ability activate and inhibit RNAIII transcription of S. aureus strains RN6390B, RN6607 and RN8463, as described in Ji, G., et al. PNAS USA 92:12055-12059 (1995).\nThe purified peptide were then analyzed for their ability activate and inhibit RNAIII transcription of S. aureus strains RN6390B, RN6607 and RN8463, as described in Ji, G., et al. PNAS USA 92:12055-12059 (1995).", "note": "At least one peptide structure holds a part that was inferred or is arguable (an end, a ring closure or a residue). Where a SMILES comes first, the peptide text is derived from it. Bridges are numbered along the chain shown (N, C = ends)."}
{"smiles": "CC[C@H](C)[C@H](NC(=O)[C@@H](N)Cc1ccc(O)cc1)C(=O)N[C@@H](CC(N)=O)C(=O)N[C@H]1CSC(=O)[C@H](CC(C)C)NC(=O)[C@H](CC(C)C)NC(=O)[C@H](Cc2ccccc2)NC(=O)[C@H](CC(=O)O)NC1=O", "note": "[Tyr-Ile-Asn-Cys-Asp-Phe-Leu-Leu] (H-YINCDFLL; thioester 4-C)", "values": [{"measurement": "agr expression by RN6390B", "result": "inhibits"}]}
